Source: patent US11903385B1, “1-(butyl(2-hydroxy-3-(naphthalen-1-yloxy)propyl)amino)-3-(naphthalen-2-yloxy)propan-2-ol as an eco-friendly insecticidal agent against Spodoptera littoralis (boisd.)” (KING FAISAL UNIVERSITY, priority 2023, dated 2024)

Tested on: S. littoralis larvae
Test: Insecticidal leaf dip bioassay screening
Conditions: after 72 h of treatment

Row | Structure (SMILES) | Slope ± SE (2nd instar larvae) | Slope ± SE (4th instar larvae)
1 | CCOC(=O)NCCOc1ccc(Oc2ccccc2)cc1 [Fenoxycarb] | 0.238 ± 0.082 | 0.681 ± 0.251
2 | CCCCN(CC(O)COc1ccc2ccccc2c1)CC(O)COc1cccc2ccccc12 (stereo not shown) [III, 1-(butyl(2-hydroxy-3-(naphthalen-1-yloxy)propyl)amino)-3-(naphthalen-2-yloxy)propan-2-ol] | 0.918 ± 0.265 | 0.949 ± 0.262
